These are yes or no findings as the source states them, for the method shown. In cells and extracts the contact can be indirect. Some results given as binding are weak or reduced against the parent protein; the word gives no strength.
How the values were obtained:
[1] = molecular target: Flag-tagged WT arrestin-2 (UniProt P17870); test: co-IP; COS-7 cells co-transfected, serum starved, with or without 10 µM isoproterenol (10 min, 37°C) and with or without HA-β2AR over-expression; anti-Flag immunoprecipitation of arrestin, anti-HA blot; lysis buffer with 250 mM NaCl, 0.5% Nonidet P-40
[2] = molecular target: Flag-tagged WT arrestin-3 (UniProt P32120); test: as above

Sequences of proteins named here, by UniProt entry; tags and fusion partners are left off.
UniProt P17870: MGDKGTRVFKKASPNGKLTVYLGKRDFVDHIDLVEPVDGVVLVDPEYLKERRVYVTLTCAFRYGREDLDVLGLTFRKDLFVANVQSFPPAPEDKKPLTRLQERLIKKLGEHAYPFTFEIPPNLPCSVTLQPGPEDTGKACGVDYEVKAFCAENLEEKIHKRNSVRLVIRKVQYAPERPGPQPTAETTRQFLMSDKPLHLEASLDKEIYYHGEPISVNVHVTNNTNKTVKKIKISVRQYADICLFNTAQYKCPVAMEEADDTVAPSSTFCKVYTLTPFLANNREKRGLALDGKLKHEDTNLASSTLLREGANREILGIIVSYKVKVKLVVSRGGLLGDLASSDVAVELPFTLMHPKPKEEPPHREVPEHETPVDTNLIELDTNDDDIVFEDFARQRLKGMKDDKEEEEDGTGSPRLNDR

| binding [1] | binding [2] | Substance |
| --- | --- | --- |
| binds | binds | c-Raf1-HA (from UniProt P04049 1-648) (enzyme) |
| binds | binds | MEK1-HA (from UniProt Q02750 1-393) (enzyme) |
